Assay [1] addresses ATR serine/threonine kinase (ATR), rat, in adult retina (rat (endogenous in adult rat retina)) (UniProt D3Z822). The assay can be described thus: co-IP; adult rat retina lysate (50 mM Tris-HCl, 50 mM NaCl, 1 mM MgCl2, 1 mM EDTA, 1% Triton X, 10% glycerol, pH 7.4); rabbit anti-NOL12 or rabbit anti-ATR, 4 °C overnight, Protein A + G beads; wash 150 mM NaCl, 0.1% NP-40; immunoblot. (Immunoblotting shows a protein as a band on a membrane.)

Protein sequences, listed by entry. Tags and fused reporters are not part of them.
UniProt D3Z822: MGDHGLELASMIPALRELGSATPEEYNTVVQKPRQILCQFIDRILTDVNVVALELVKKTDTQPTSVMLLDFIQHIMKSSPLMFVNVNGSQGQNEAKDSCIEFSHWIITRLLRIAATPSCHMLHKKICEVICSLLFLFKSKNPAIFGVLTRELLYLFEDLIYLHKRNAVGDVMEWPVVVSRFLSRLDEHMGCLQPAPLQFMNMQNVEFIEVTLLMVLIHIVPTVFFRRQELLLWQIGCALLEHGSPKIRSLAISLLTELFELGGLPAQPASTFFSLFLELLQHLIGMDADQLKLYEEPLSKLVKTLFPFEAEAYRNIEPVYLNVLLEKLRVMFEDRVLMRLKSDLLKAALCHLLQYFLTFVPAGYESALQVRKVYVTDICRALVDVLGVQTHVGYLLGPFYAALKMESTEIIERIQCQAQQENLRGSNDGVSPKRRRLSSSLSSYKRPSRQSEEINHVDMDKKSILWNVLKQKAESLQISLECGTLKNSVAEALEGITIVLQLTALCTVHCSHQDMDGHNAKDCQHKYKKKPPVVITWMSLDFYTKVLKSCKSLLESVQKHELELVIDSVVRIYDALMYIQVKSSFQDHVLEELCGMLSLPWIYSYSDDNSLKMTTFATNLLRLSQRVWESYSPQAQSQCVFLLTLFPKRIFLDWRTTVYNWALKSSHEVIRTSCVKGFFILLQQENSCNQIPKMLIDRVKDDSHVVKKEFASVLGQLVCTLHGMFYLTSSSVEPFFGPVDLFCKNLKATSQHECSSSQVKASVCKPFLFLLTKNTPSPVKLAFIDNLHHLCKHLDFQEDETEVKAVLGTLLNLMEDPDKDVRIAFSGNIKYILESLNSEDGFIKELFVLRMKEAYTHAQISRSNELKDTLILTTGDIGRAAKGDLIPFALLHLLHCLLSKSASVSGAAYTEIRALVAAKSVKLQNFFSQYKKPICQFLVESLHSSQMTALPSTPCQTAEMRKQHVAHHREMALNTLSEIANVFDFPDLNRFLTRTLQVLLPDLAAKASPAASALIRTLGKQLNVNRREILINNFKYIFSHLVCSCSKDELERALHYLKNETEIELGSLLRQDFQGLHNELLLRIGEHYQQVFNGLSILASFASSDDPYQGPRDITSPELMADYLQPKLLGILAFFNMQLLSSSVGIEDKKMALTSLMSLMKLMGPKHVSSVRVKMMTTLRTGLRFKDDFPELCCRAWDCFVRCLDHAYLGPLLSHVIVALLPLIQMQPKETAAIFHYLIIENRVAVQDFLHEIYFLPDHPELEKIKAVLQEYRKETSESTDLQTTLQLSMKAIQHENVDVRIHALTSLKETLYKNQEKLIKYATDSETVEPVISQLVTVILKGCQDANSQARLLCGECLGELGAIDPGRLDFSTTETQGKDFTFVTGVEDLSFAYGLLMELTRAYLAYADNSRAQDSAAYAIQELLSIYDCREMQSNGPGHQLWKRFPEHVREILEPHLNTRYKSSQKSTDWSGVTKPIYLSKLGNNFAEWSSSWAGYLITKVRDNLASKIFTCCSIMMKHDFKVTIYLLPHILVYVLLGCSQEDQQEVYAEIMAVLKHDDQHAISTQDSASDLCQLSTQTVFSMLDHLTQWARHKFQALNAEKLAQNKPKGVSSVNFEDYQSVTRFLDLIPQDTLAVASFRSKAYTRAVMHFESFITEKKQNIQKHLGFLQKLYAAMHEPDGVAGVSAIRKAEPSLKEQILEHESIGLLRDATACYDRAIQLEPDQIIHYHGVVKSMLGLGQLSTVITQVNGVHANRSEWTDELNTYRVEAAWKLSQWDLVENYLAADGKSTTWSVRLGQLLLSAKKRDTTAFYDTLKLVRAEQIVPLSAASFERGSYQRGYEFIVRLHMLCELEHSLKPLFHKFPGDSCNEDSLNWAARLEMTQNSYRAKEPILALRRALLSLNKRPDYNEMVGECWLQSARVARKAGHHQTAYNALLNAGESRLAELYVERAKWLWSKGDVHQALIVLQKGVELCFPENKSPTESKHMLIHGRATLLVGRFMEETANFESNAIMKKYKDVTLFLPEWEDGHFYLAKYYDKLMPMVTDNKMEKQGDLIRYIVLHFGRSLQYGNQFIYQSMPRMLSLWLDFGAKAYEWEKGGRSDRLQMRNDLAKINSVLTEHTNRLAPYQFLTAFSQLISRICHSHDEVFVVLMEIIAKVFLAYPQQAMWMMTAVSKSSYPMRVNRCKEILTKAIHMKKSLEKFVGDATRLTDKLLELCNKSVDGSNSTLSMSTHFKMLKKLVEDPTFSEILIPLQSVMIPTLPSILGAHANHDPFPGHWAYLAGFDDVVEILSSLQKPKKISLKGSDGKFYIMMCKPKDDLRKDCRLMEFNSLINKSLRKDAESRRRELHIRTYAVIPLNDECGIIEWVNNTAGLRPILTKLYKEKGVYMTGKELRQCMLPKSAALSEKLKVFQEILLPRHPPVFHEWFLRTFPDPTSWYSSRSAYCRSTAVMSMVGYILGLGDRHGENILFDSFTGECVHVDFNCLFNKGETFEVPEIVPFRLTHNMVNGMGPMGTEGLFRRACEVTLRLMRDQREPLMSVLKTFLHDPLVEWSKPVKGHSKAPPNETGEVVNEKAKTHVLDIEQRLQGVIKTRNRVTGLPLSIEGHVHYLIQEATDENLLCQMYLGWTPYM
UniProt P15927: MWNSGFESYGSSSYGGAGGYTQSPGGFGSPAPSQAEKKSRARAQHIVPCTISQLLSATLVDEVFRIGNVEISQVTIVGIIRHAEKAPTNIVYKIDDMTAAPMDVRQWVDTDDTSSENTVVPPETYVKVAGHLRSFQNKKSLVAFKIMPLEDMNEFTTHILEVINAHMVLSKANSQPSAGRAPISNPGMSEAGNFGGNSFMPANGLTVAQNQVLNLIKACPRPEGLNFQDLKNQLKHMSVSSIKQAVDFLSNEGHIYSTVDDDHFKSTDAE
UniProt Q13535: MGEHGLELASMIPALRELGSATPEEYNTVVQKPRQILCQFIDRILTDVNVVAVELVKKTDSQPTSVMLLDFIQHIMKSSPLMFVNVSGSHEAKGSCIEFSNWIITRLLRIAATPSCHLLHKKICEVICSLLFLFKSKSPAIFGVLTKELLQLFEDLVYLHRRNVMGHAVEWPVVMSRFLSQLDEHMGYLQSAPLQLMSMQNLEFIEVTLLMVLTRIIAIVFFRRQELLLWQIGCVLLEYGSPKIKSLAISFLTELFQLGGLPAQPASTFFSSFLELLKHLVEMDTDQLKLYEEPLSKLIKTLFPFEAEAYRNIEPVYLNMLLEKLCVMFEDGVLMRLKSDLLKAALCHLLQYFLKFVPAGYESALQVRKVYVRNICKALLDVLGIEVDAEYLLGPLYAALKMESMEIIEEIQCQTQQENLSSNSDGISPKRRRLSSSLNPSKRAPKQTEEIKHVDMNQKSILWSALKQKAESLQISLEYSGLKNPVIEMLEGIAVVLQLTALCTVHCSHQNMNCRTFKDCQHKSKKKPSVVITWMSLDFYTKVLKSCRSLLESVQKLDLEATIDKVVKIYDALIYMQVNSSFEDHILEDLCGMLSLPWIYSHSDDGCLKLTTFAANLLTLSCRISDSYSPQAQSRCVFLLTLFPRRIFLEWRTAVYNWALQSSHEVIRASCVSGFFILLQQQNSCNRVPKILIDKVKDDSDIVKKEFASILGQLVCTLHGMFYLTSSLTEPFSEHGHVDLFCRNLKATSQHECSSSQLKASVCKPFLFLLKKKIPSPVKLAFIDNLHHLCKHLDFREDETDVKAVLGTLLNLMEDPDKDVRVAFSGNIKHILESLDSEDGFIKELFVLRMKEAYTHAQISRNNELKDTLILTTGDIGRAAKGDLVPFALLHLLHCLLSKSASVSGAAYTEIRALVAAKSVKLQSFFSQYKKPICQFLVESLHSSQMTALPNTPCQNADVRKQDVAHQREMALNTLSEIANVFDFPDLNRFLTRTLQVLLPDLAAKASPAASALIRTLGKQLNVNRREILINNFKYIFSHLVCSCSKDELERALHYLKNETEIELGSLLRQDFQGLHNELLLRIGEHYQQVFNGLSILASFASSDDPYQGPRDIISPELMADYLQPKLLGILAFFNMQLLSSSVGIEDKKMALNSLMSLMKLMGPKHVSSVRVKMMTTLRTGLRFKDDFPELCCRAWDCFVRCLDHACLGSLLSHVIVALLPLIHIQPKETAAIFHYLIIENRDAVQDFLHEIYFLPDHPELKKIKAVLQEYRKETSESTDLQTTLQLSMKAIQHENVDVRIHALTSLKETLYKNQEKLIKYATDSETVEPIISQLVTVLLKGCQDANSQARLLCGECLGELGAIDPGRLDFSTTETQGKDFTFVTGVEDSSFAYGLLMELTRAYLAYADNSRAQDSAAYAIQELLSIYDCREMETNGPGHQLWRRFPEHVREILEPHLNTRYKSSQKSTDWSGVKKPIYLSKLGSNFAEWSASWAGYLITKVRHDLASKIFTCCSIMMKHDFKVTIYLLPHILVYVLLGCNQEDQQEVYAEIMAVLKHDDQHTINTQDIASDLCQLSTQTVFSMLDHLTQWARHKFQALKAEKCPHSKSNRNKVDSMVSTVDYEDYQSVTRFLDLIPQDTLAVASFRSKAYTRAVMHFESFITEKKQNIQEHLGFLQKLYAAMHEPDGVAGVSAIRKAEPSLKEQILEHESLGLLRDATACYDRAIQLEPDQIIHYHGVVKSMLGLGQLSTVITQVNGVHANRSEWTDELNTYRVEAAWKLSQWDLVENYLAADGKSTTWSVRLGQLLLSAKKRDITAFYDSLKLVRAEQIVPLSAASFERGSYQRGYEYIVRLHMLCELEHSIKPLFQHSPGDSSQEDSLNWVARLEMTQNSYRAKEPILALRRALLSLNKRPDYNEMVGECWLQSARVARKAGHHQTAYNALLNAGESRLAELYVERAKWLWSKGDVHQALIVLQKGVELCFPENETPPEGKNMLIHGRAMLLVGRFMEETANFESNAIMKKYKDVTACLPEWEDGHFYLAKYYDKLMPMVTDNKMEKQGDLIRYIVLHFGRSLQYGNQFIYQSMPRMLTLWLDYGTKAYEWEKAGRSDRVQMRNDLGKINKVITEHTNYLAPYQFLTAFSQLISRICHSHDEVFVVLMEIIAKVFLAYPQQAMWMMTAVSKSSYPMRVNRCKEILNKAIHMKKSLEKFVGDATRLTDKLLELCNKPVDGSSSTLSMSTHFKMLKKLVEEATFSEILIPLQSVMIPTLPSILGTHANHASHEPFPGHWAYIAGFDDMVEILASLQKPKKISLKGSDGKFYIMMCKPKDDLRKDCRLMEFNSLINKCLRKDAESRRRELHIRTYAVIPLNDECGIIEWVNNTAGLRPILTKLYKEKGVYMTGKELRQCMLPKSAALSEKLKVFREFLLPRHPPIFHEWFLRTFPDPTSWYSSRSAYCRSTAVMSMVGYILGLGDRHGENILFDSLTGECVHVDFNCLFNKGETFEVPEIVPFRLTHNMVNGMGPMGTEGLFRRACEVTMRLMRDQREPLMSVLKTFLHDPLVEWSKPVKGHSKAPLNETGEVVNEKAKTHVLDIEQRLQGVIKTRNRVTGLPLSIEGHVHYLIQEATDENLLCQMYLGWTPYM

For assay [2], the target named is RPA32, human, in WERI-Rb1 cells (human (endogenous in WERI-Rb1)) (UniProt P15927). As to the kind of experiment: co-IP; WERI-Rb1 cell lysate (50 mM Tris-HCl, 50 mM NaCl, 1 mM MgCl2, 1 mM EDTA, 1% Triton X, 10% glycerol, pH 7.4); rabbit anti-NOL12 or rabbit anti-ATR, 4 °C overnight, Protein A + G beads; wash 150 mM NaCl, 0.1% NP-40; immunoblot.
In assay [3] the target is ATR serine/threonine kinase (ATR), human, in WERI-Rb1 cells (human (endogenous in WERI-Rb1)) (UniProt Q13535). Described as above.

These are yes or no findings as the source states them, for the method shown. In cells and extracts the contact can be indirect. Some entries that bind do so weakly or less than the wild type.

For two molecules, binding results are on record in PMC10928217.

B1: Nucleolar protein 12 (NOL12), rat, in adult retina (protein, UniProt Q5D1Z3 1-216)
chain: MGRNKKKKRDGDDRRPRLILNFDEEKRREYLTGFHKRKVERKKAAIEEIKQRLKQEQKKLREERHQEYLKMLAEREEALEEADELERLVTAKTESVQYDHPNHTVTVTTVSDLDLSGARLLGLPLPEQGDQDGSQEEEVSSMEKPTKALPKKSKDPLLSQRISSLTATLHAHSRKKVKRKHPRRAQDSTKKPPSATRTSKTQRRRRMTGKARHNGE
Turning to B1, the binding entry in assay [1] was “binds”.

B2: Nucleolar protein 12 (NOL12), human, in WERI-Rb1 cells (protein, UniProt Q9UGY1 1-213)
chain: MGRNKKKKRDGDDRRPRLVLSFDEEKRREYLTGFHKRKVERKKAAIEEIKQRLKEEQRKLREERHQEYLKMLAEREEALEEADELDRLVTAKTESVQYDHPNHTVTVTTISDLDLSGARLLGLTPPEGGAGDRSEEEASSTEKPTKALPRKSRDPLLSQRISSLTASLHAHSRKKVKRKHPRRAQDSKKPPRAPRTSKAQRRRLTGKARHSGE
As to B2, the binding result in assay [2] and in assay [3] was “binds” in each case.
